Measurements taken from PubChem BioAssay AID540276 (National Center for Advancing Translational Sciences (NCATS), 2011).
Where “and” joins values, the source holds several entries; their conditions need not be identical. Equal entries are not always repeated. The campaign covered roughly 300,000 compounds. About 5,400 (1.8%) were called active. Inconclusive means that the source gave no clear call. Such entries were picked first, then a sample of the others. Calls follow the shape of the full dose curve; tested in HEK293 cells. Potencies beside an inconclusive call are fits to weak or partial responses and may not hold up.

Assay: qHTS for inhibitors of binding or entry into cells for Marburg Virus
Conditions: Marburg virus pseudotyped entry inhibition, cell reporter; activity change, negative = inhibition: at 37.8 µM (top of the series) unless noted
% is scaled to controls: 0 for no effect and ±100 for the full control effect; potency is read from the fitted curve at half-maximal effect.

| Structure (SMILES) | Potency | activity change, negative = inhibition |
| --- | --- | --- |
| CCCc1nc(N2CCOCC2)c(C#N)c2c1CCCC2 | inconclusive: 3.55 µM [inhibitor, partial curve, poor fit] | – |
| CC(C)(C)CC(=O)O/N=C(\N)c1ccccn1 | inconclusive: 35.5 µM [inhibitor, single point] | – |
| O=C(Nc1ccc(N2CCOCC2)cc1)c1cccnc1 | – | inactive: -1.33% |
| Cc1nc(-c2ccccc2)sc1C(=O)NN | – | inactive: -9.94% |
| COc1ccc(NC2=NCC(C)S2)cc1 (stereo not given) | – | inactive: -23.1% [at 46.1 µM] |
| COc1ccccc1N(C)S(=O)(=O)c1ccc(C(=O)OCC(N)=O)cc1 | – | inactive: -12.4% [at 46.1 µM] |
| CCOC(=O)c1sc2ncnc(OC)c2c1C | inconclusive: 14.1 µM [activator, partial curve, poor fit] | – |
| Cc1cc(NC(=O)c2cc(-c3cccs3)on2)nn1Cc1ccc(Cl)cc1 | inconclusive: 6.51 µM [inhibitor, single point] | – |
| O=C(/C=C/c1ccccc1)N1CCN(C(=O)c2ccco2)CC1 | – | inactive: 19.3% |
| CCOC(=O)Nc1nnc(/C=C/c2ccc(OC)cc2)s1 | – | inactive: 3.06% |
| C#CCOC(=O)Nc1ccc(OCC(F)(F)F)nc1 | inconclusive: 0.501 µM [activator, partial curve, poor fit] | – |
| COc1ccc(CCNC(=O)CS(=O)Cc2nc(-c3ccccc3F)oc2C)cc1OC (stereo not given) | inactive | – |
| CCN(C(=O)COC(=O)c1c2c(nc3ccccc13)/C(=C/c1ccccc1)CC(C)C2)C1CCS(=O)(=O)C1 (stereo not given) | inconclusive: 2.82 µM [inhibitor, partial curve, poor fit] | – |
| CCOc1ccc(C2C(C(=O)Nc3ccccc3C)=C(C)Nc3nnnn32)cc1 (stereo not given) | – | inactive: 4.71% [at 46.1 µM] |
| CCc1ccc(S(=O)(=O)Nc2cc(SCC(=O)O)c(O)c3ccccc23)cc1 | inconclusive: 29.1 µM [inhibitor, single point] | – |
| O=C1CC2(CCN(C(=O)c3ccccc3[N+](=O)[O-])CC2)Oc2ccccc21 | – | inactive: 1.47% |
| CCN(c1ccccc1)S(=O)(=O)c1ccc(C(=O)NCc2ccccn2)cc1 | – | inactive: -0.747% |
| CC(=O)Nc1ccc(NC(=O)CSc2nccn2Cc2ccccc2)cc1 | – | inactive: 2.13% |
| O=C(Nc1cccnc1)c1ccccc1NS(=O)(=O)c1ccc(F)cc1 | inconclusive: 7.94 µM [inhibitor, partial curve, poor fit] | – |
| COc1ccc(C(=O)N2CCN(C(C)=O)CC2)cc1S(=O)(=O)NCc1ccc(Cl)cc1 | inconclusive: 12.6 µM [inhibitor, single point] | – |
| CCC(=O)Nc1ccc(NC(=O)CSc2nnc(-c3ccc(O)cc3)n2CC2CCCO2)cc1 (stereo not given) | – | inactive: -3.11% [at 46.1 µM] |
| CCOc1ccc2[nH]c(C(=O)N/N=C/c3cc(OC)c(OC)c(OC)c3)cc2c1 | inconclusive: 10 µM [inhibitor, partial curve, poor fit] | – |
| Cc1ccc(NC(=S)N(CCN2CCCCC2)Cc2ccco2)cc1C | inconclusive: 0.891 µM [inhibitor, partial curve, poor fit] | – |
| Cc1ccc(C)c(NC(=O)/C(C#N)=C/c2ccc(C(C)C)cc2)c1 | – | inactive: -4.45% [at 46.1 µM] |

| Structure (SMILES) | Potency | activity change, negative = inhibition |
| --- | --- | --- |
| CCC[n+]1c2ccccc2cc2ccccc21 | inconclusive: 35.5 µM [inhibitor, single point] | – |
| S=C(NCc1ccccc1)Nc1ccc2cn[nH]c2c1 | – | inactive: 0.642% [at 46.1 µM] |
| OCC1(CCc2ccccc2)CCN(Cc2cccn2-c2cccnc2)CC1 | inconclusive: 35.5 µM [inhibitor, single point] | – |
| CCN(CC(=O)Nc1ccc(S(=O)(=O)N2CCCC2)cc1)Cc1ccccc1 | inconclusive: 5.62 µM [inhibitor, single point] | – |
| CCC(COC(C)=O)Nc1nc2c([nH]1)c(=O)n(C)c(=O)n2C (stereo not given) | inconclusive: 14.1 µM [activator, single point] | – |
| CCOC(=O)N1CCN(CC(=O)Nc2c(C(=O)OC)[nH]c3ccc(Cl)cc23)CC1 | inconclusive: 15.8 µM [inhibitor, single point] | – |
| Cc1ccc(OC(C)C(=O)Nc2ccccc2C(=O)N2CCN(C)CC2)cc1 (stereo not given) | – | inactive: 8.33% |
| O=C(CNC(=O)c1cccs1)N/N=C/c1ccccc1[N+](=O)[O-] | inconclusive: 2.24 µM [activator, partial curve, poor fit] | – |
| CCOc1ccc(/C=N/NC(=O)c2ccc(Cn3cc(Br)cn3)o2)cc1 | inconclusive: 7.08 µM [activator, partial curve, poor fit] | – |
| COc1ccc(C)cc1NC(=O)c1nnn(-c2c(C)cccc2C)c1C | inconclusive: 35.5 µM [activator, single point] | – |
| Cc1noc(C)c1COC(=O)c1cc2c3ccccc3n(C)c2s1 | – | inactive: -28.3% |
| COC(=O)c1sc(-c2ccccc2)cc1NC(=O)c1ccccc1 | inconclusive: 10 µM [activator, partial curve, poor fit] | – |
| Cc1ccc(CN2CCC(CNC(=O)Nc3ccc(C)c(C)c3)C2)cc1 (stereo not given) | inconclusive: 11.2 µM [inhibitor, partial curve, poor fit] | – |
| COc1cc(SC)ccc1C(=O)NCCc1c[nH]c2ccccc12 | inconclusive: 8.91 µM [inhibitor, partial curve, poor fit] | – |
| O=C(NCc1ccco1)c1sc2cc(Cl)ccc2c1Cl | – | inactive: 28.9% |
| COc1ccc(C(=O)Nc2ccc(NC(=O)c3cc(OC)c(OC)c(OC)c3)cn2)cc1 | – | inactive: -24.3% [at 46.1 µM] |
| COC(=O)c1cc(Sc2cccc(Cl)c2Cl)ccn1 | – | inactive: 10.5% |
| CC(C)n1c(SCC(=O)Nc2ccccc2)nc2c1c(=O)[nH]c(=O)n2C | – | inactive: 2.04% |
| Cc1ccc(OCCCNCCO)c(Br)c1 | inconclusive: 35.5 µM [inhibitor, single point] | – |
| Cc1ccc(S(=O)(=O)N(Cc2cc3cc4c(cc3[nH]c2=O)OCCO4)CC2CCCO2)cc1 (stereo not given) | inconclusive: 5.8 µM [inhibitor, full curve, poor fit] | – |
| O=C(CN1C(=O)c2ccccc2C1=O)N1CCN(c2ccccc2)CC1 | – | inactive: -0.0181% |
| Cc1cc(NC(=O)CCCS(=O)(=O)c2nc(-c3cccs3)cc(C(F)(F)F)n2)no1 | inconclusive: 14.1 µM [inhibitor, single point] | – |
| C#CCCCO/N=C1\C[C@@H](O)[C@@H](O)[C@@H]2[C@@H]3C(=O)N(Cc4ccccc4)C(=O)[C@@H]3CC[C@H]12 | – | inactive: 11% [at 14.2 µM] |
| COc1ccc(S(=O)(=O)N2CCOCC2)cc1NC(=O)CN1CCC(Cc2ccccc2)CC1 | inconclusive: 20 µM [inhibitor, single point] | – |

In another format: two of the compounds above
Structure (SMILES)	Potency	activity change, negative = inhibition
CCOc1ccc(C2C(C(=O)Nc3ccccc3C)=C(C)Nc3nnnn32)cc1 (stereo not given)	–	inactive: 4.71% [at 46.1 µM]
CCc1ccc(S(=O)(=O)Nc2cc(SCC(=O)O)c(O)c3ccccc23)cc1	inconclusive: 29.1 µM [inhibitor, single point]	–

More records follow:

| Structure (SMILES) | Potency | activity change, negative = inhibition |
| --- | --- | --- |
| CC1=CC(C)(C)Nc2ccc(OC(=O)C(Cc3ccccc3)N3C(=O)C4CCCCC4C3=O)cc21 (stereo not given) | inconclusive: 11.2 µM [inhibitor, partial curve, poor fit] | – |
| Nc1ccccc1N=Cc1ccc(-c2cccc(Cl)c2)o1 | inconclusive: 3.16 µM [activator, partial curve, poor fit] | – |
| CCn1c(CN2CCOCC2)nc2cc(NC(=O)c3cccc([N+](=O)[O-])c3)ccc21 | inconclusive: 1 µM [activator, full curve, poor fit] | – |
| CN1C(=O)C(C)(C2=CCCCC2)C(=O)NC1=S (stereo not given) | inconclusive: 3.16 µM [activator, partial curve, poor fit] | – |
| O=C(CN(c1ccccc1)S(=O)(=O)c1ccc(F)cc1)NC1CCCCCC1 | inconclusive: 11.2 µM [activator, single point] | – |
| Cc1ccc(NC(=O)CN2CCc3ccccc3C2)cc1F | inconclusive: 3.16 µM [activator, single point] | – |
| CC(C)c1ccc(/C=N/NC(=O)C(=O)NCCCN2CCOCC2)cc1 | – | inactive: -5.76% |
| Cn1cccc1/C=C(/C#N)c1ccc(F)cc1 | – | inactive: 5.28% |
| COc1ccc(N=Nc2c(N)n[nH]c2N)cc1 | inconclusive: 1.26 µM [activator, partial curve, poor fit] | – |
| COc1ccc(NC(=O)CSc2nnc(-c3ccco3)c(-c3ccco3)n2)cc1OC | inconclusive: 6.31 µM [inhibitor, single point] | – |
| CN1CCC(N(C)C(=O)NC2CCCCC2)CC1 | inconclusive: 0.562 µM [inhibitor, full curve, poor fit] | – |
| CC(=O)CSc1nnc(-c2ccc3c(c2)OCO3)o1 | inconclusive: 16.4 µM [inhibitor, single point] | – |
| CN(C)/C=C1\N=C(c2ccc(Cl)cc2Cl)OC1=O | inconclusive: 3.26 µM [activator, partial curve, poor fit] | – |
| Cc1cccc(/C=N/N(CCO)C2=NS(=O)(=O)c3ccccc32)c1 | inconclusive: 25.1 µM [inhibitor, single point] | – |
| COc1cc(CNCCN(C)C)ccc1OCc1c(F)cccc1Cl | inconclusive: 11.2 µM [inhibitor, partial curve, poor fit] | – |
| Cc1nc2nc(C)c(NS(=O)(=O)c3ccc(CC(C)C)cc3)c(=O)n2[nH]1 | inactive and inconclusive: 2.82 µM [activator, single point] | – |
| Nc1c([N+](=O)[O-])cc(F)c(N2CCNCC2)c1Br | inconclusive: 35.5 µM [inhibitor, single point] | – |
| CCC(=O)Nc1ccc(-c2cc(-c3ccccc3)nc(-c3ccc(NC(=O)CC)cc3)n2)cc1 | – | inactive: -3.58% |
| COc1ccccc1Nc1nc(Cl)nc(Nc2ccccc2OC)n1 | – | inactive: -29.1% [at 46.1 µM] |
| CCCc1nnc(NC(=O)Nc2ccccc2Cl)s1 | inconclusive: 11.2 µM [activator, partial curve, poor fit] | – |
| COc1ccc2sc(N(CCCN(C)C)C(=O)c3ccc(S(=O)(=O)N(C)Cc4ccccc4)cc3)nc2c1 | inconclusive: 35.5 µM [inhibitor, single point] | – |
| COc1ccc(S(=O)(=O)N2CCN(Cc3cccc([N+](=O)[O-])c3)CC2)cc1 | inconclusive: 0.794 µM [activator, single point] | – |
